Experimental data published in paper doi:10.1101/606285.
No constants are given. Whether binding was seen depends on the method and setting. For some of these results: Binding seen in cells or lysates may run through a third protein. Some results given as binding are weak or reduced against the parent protein; the word gives no strength. Sequences can lack the tags named with a protein.

By UniProt entry, the sequences of proteins in these tests, tags left out.
UniProt Q5IBC5: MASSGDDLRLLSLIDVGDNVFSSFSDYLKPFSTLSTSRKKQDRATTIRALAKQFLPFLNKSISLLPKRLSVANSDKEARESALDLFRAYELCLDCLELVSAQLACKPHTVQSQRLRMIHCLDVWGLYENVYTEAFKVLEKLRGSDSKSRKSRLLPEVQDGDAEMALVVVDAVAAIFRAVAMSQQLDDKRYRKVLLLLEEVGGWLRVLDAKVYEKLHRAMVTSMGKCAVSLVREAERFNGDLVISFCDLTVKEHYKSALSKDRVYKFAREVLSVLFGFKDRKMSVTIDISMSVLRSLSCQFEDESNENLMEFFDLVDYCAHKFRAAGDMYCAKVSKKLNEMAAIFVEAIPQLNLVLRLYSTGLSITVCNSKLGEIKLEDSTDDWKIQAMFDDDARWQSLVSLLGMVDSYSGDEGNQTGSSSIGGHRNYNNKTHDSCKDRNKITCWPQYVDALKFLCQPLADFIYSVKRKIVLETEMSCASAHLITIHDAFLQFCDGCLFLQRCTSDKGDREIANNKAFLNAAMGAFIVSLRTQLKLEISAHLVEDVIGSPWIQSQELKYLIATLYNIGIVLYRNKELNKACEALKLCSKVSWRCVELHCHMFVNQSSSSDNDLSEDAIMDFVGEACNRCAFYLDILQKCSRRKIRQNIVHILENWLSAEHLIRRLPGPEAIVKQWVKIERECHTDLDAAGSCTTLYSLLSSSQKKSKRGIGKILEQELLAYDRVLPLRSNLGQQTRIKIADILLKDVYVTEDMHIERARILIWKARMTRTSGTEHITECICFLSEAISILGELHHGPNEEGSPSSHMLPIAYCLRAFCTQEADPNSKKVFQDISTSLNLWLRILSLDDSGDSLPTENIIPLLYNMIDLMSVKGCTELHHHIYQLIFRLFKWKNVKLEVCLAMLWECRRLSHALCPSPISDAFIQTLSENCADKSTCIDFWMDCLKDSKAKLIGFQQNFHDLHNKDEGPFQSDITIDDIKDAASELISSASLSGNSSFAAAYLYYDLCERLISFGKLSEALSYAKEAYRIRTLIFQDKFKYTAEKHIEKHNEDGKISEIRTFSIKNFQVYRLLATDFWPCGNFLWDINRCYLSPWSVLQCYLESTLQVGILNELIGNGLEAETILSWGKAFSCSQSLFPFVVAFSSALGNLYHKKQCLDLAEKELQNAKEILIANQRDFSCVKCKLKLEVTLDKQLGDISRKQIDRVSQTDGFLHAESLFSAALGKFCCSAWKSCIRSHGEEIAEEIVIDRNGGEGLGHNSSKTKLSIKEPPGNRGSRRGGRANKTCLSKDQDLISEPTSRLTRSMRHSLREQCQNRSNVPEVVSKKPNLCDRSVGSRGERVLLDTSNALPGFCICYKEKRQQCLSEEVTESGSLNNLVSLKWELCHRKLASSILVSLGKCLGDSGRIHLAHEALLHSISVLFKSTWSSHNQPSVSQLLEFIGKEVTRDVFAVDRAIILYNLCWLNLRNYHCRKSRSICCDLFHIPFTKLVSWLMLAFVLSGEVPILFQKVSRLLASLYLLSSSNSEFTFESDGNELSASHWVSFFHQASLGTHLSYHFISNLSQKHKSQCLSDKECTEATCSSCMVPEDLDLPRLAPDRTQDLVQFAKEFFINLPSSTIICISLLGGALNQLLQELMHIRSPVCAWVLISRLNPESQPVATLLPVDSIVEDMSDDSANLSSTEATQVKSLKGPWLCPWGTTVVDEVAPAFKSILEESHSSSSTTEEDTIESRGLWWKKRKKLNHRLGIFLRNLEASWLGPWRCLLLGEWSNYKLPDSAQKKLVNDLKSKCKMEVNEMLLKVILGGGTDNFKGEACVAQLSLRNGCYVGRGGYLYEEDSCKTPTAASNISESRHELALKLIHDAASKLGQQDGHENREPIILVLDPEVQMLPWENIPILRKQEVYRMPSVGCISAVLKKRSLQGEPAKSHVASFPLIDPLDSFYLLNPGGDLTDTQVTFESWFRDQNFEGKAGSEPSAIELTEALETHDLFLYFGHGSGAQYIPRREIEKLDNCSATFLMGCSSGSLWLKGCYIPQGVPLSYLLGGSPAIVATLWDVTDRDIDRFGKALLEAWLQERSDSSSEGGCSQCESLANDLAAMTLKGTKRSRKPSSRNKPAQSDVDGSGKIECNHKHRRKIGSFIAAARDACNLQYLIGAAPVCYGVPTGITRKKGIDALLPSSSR

B1: PATRONUS2 (PANS2), split-YFP fusion for BiFC (protein, UniProt Q94CK6 1-194)
chain: MANTILRGQMIFQDENALAALGKKAVAAGKGKSSLAAPKKNGAGFGSRKALHDITNKSKLQPQASSTTRKDVEGVDFDIAKEGFLHDHSKCIEEQQQDQWDSYFSEHIILHGHETNIKEGVPQYNNIQEIDAENSWDELKEIPMEEFSDLLECSTQWRSPPDSLSHHHSSLPSSPLPWHFETVEFKLKEDEDTT
B2: PATRONUS1 (PANS1), fused with the activating domain (AD) (protein, UniProt Q9LJG6 1-193)
chain: MANMNALQQMIFPDENAPIHRKKSVTAASVKSKGTVLGQKKPGGARKALNDITNKSGIHAKAAASSKNKQIASAAVKEIDIAGERFLHDHSKCIKEQQNLWDDHYSADLMLLHHGSSIKEKHLNWDIEKMDAKDDLTYEEPEEMASPKFSDWLKNSTPWRSPIRHGSMMPSTPLAWRFDSCEFTLKEDSDDLF
B3: PATRONUS2 (PANS2), fused with the activating domain (AD) (protein, UniProt Q94CK6 1-194)
chain: B1 chain
B4: PATRONUS1 (PANS1), split-YFP fusion for BiFC (protein, UniProt Q9LJG6 1-193)
chain: B2 chain

What was measured:
[1] = target: SEPARASE (ESP), split-YFP fusion for BiFC (Arabidopsis thaliana) (UniProt Q5IBC5); assay: split reporter
[2] = target: SEPARASE (ESP), fused with the binding domain (BD) (Arabidopsis thaliana) (UniProt Q5IBC5); assay: two-hybrid

| Binder | binding [1] | binding [2] |
| --- | --- | --- |
| B1 | binds |  |
| B2 |  | binds |
| B3 |  | binds |
| B4 | binds |  |
